No constants are given. Whether binding was seen depends on the method and setting. Some binding calls cover weakened binding; strength is not graded here.
Tests used:
[1] = biological target: Chlamydia muridarum Chlamydial Protease Activity Factor, inactive variant S491A with K232Q (Chlamydia muridarum) (UniProt Q9PL60); experiment: SEC
[2] = biological target: Chlamydia muridarum Chlamydial Protease Activity Factor, inactive variant S491A (Chlamydia muridarum) (UniProt Q9PL60); experiment: SEC

The chains behind the UniProt entries cited, without tags or fusion partners. Where a name states a change or a piece, a line headed by the entry shows the natural chain unless it says otherwise.
UniProt Q9PL60, whole entry, looked up, stated change not applied: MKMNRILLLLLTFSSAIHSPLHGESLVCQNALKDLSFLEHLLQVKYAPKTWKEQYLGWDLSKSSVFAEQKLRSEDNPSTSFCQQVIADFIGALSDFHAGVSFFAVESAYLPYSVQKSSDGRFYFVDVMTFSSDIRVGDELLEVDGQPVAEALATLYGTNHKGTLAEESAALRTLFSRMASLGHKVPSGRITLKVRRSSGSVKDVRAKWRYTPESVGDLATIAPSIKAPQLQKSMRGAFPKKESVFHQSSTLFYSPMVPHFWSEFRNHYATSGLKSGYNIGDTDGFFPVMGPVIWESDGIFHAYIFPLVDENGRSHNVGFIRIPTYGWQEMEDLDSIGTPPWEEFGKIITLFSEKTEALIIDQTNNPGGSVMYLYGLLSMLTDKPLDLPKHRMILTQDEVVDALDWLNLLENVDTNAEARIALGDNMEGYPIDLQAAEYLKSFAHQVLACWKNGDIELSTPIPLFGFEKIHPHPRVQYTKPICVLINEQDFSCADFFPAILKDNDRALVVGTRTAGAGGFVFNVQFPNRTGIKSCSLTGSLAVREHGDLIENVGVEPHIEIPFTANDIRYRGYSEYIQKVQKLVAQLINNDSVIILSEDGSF

Chlamydia muridarum Chlamydial Protease Activity Factor, inactive variant S491A with K232Q (from UniProt Q9PL60 1-601) (enzyme)
binding [1]: binds

Chlamydia muridarum Chlamydial Protease Activity Factor, inactive variant S491A (from UniProt Q9PL60 1-601) (enzyme)
binding [2]: binds

Source: doi:10.1101/2024.09.20.614154
